Some results were stated once for a whole list of compounds, not compound by compound.
How the values were obtained:
Assay type in all cases: in vivo
Myzus persicae [1] = test: Test Example 2: pesticidal effect against Myzus persicae, cabbage leaf disk, 0.156 ppm; conditions: 0.156 ppm test solution spread over cabbage leaf disk, first instar larvae, three days, 25° C.
Myzus persicae [2] = test: Test Example 1: pesticidal effect against Myzus persicae, cabbage leaf disk, 20 ppm; conditions: 20 ppm test solution spread over cabbage leaf disk, first instar larvae, three days, 25° C.
[3] = tested on: Trialeurodes vaporariorum; test: Test Example 4: pesticidal effect against Trialeurodes vaporariorum, haricot leaf disk, 5 ppm; conditions: 5 ppm test solution on haricot leaf disk, five adults released, six days after release, 25° C.
Aphis gossypii = test: Test Example 3: pesticidal effect against Aphis gossypii, cucumber leaf disk, 5 ppm; conditions: 5 ppm test solution on cucumber leaf disk, first instar larvae, three days after release, 25° C.

With CC(C)C(=O)OC1CC2C(C)(COC(=O)C3CC3)C(OC(=O)C3CC3)CCC2(C)C2C(O)c3c(cc(-c4cccnc4)oc3=O)OC12C (centres unmarked) [Compound 1-267] the “insecticidal activity (death rate of larvae)” value (from here on “insecticidal activity”) (Myzus persicae [1]) was “not less than 80%” and the “insecticidal activity” value (Myzus persicae [2]) was “not less than 80%”.

CC(C)(C)C(=O)OC1CC2C(C)(COC(=O)C3CC3)C(OC(=O)C3CC3)CCC2(C)C2C(O)c3c(cc(-c4cccnc4)oc3=O)OC12C (centres unmarked) [Compound 1-268] was tested, and the “insecticidal activity” value (Myzus persicae [1]) was “not less than 80%” and the “insecticidal activity” value (Myzus persicae [2]) was “not less than 80%”.

In the case of CC1(COC(=O)C2CC2)C(OC(=O)C2CC2)CCC2(C)C1CC(OS(C)(=O)=O)C1(C)Oc3cc(-c4cccnc4)oc(=O)c3C(O)C21 (centres unmarked) [Compound 1-269], the “insecticidal activity” value (Myzus persicae [1]) was “not less than 80%”, the “insecticidal activity” value [3] was “not less than 80%” and the “insecticidal activity” value (Myzus persicae [2]) was “not less than 80%”.

For CC1(COC(=O)C2CC2)C(OC(=O)C2CC2)CCC2(C)C1CC(OC(=O)c1ccccc1)C1(C)Oc3cc(-c4cccnc4)oc(=O)c3C(O)C21 (centres unmarked) [Compound 1-272], the “insecticidal activity” value (Myzus persicae [1]) was “not less than 80%” and the “insecticidal activity” value (Myzus persicae [2]) was “not less than 80%”.

With CC1(COC(=O)C2CC2)C(OC(=O)C2CC2)CCC2(C)C1CC(OC(=O)c1ccccn1)C1(C)Oc3cc(-c4cccnc4)oc(=O)c3C(O)C21 (centres unmarked) [Compound 1-273] the “insecticidal activity” value (Myzus persicae [1]) was “not less than 80%” and the “insecticidal activity” value (Myzus persicae [2]) was “not less than 80%”.

CC1(COC(=O)C2CC2)C(OC(=O)C2CC2)CCC2(C)C1CC(OC(=S)n1ccnc1)C1(C)Oc3cc(-c4cccnc4)oc(=O)c3C(O)C21 (centres unmarked) [Compound 1-276] was tested, and the “insecticidal activity” value (Myzus persicae [1]) was “not less than 80%” and the “insecticidal activity” value (Myzus persicae [2]) was “not less than 80%”.

With CCS(=O)(=O)OCC1(C)C(OC(=O)C2CC2)CCC2(C)C1CC(OC(=O)C1CC1)C1(C)Oc3cc(-c4cccnc4)oc(=O)c3C(O)C21 (centres unmarked) [Compound 1-330] the “insecticidal activity” value (Myzus persicae [1]) was “not less than 80%” and the “insecticidal activity” value (Myzus persicae [2]) was “not less than 80%”.

CC(C)(C)C(=O)OC1CCC2(C)C(CC(OC(=O)C(C)(C)C)C3(C)Oc4cc(-c5cccnc5)oc(=O)c4C(O)C23)C1(C)COC(=O)C1CC1 (centres unmarked) [Compound 1-360] was tested, and the “insecticidal activity” value (Myzus persicae [1]) was “not less than 80%” and the “insecticidal activity” value (Myzus persicae [2]) was “not less than 80%”.

In the case of CC1(COC(=O)C2CC2)C(OS(C)(=O)=O)CCC2(C)C1CC(O)C1(C)Oc3cc(-c4cccnc4)oc(=O)c3C(O)C21 (centres unmarked) [Compound 1-394], the “insecticidal activity” value (Myzus persicae [1]) was “not less than 80%”, the “insecticidal activity” value (Myzus persicae [2]) was “not less than 80%” and the “insecticidal activity” value (Aphis gossypii) was “not less than 80%”.

In the case of CC1(CO)C(OC(=O)C2CC2)CCC2(C)C1CC(O)C1(C)Oc3cc(-c4cccnc4)oc(=O)c3C(O)C21 (centres unmarked) [Compound 1-701], the “insecticidal activity” value [3] was “not less than 80%” and the “insecticidal activity” value (Aphis gossypii) was “not less than 80%”.

In the case of CC12Oc3cc(-c4cccnc4)oc(=O)c3C(O)C1C1(C)CCC(OC(=O)C3CC3)C(C)(CO)C1CC2=O (centres unmarked) [Compound 1-708], the “insecticidal activity” value [3] was “not less than 80%” and the “insecticidal activity” value (Aphis gossypii) was “not less than 80%”.

For CC1(COC(=O)C2CCC2)C(OC(=O)C2CCC2)CCC2(C)C1CC(O)C1(C)Oc3cc(-c4cccnc4)oc(=O)c3C(O)C21 (centres unmarked) [Compound 1-716], the “insecticidal activity” value (Myzus persicae [1]) was “not less than 80%” and the “insecticidal activity” value (Myzus persicae [2]) was “not less than 80%”.

— patent US20130131091A1, “HARMFUL ORGANISM CONTROL AGENT” (priority 2010, published 2013)
